{"sequences": {"note": "Protein sequences, listed by entry. Tags and fused reporters are not part of them.", "UniProt P53350, whole entry, looked up": "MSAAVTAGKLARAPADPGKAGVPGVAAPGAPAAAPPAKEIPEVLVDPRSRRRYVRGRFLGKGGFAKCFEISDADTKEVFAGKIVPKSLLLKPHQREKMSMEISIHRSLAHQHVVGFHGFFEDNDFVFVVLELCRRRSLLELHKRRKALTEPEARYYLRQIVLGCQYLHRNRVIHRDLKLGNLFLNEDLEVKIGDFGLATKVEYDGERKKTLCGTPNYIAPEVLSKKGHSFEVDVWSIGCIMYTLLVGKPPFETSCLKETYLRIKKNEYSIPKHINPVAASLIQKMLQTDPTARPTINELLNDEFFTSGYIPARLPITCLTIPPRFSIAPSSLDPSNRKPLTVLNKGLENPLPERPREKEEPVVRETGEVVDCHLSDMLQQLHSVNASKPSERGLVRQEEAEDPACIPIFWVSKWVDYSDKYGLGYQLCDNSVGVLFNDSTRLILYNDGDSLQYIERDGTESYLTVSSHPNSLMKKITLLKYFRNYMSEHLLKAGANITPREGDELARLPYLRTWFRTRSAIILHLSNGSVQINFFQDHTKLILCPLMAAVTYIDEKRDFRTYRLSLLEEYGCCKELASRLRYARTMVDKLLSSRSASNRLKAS"}, "source": "PubChem BioAssay AID720504", "about": "(National Center for Advancing Translational Sciences (NCATS), 2013)", "note": "Screen size: about 360,000 compounds; about 10,000 (2.8%) were called active. The shares of active, inactive and inconclusive entries below differ from those in the screen. Calls come from the whole dose curve; as a rule, active = well fitted inhibition curve with a large enough effect; inconclusive = small, poorly fitted or top-dose-only effect; inactive = flat fitted curve, though single readings scatter. Potencies beside an inconclusive call are fits to weak or partial responses and may not hold up. % is set by controls: 0 for no effect and ±100 for the full control effect; potency is the fitted concentration of half-maximal effect."}
{"target": "Serine/threonine-protein kinase PLK1 (Homo sapiens) (UniProt P53350)", "assay": "qHTS for Inhibitors of PLK1-PDB (polo-like kinase 1 - polo-box domain): Primary Screen; note: nearly all actives have a fitted effect of over 65% in size; for max response, negative = inhibition: series mostly up to about 57 µM", "details": "Plk1 PBD binding of FITC phosphopeptide, fluorescence polarization"}
{"smiles": "O=C(NCCNCc1cccc(Cl)c1)c1ccco1", "Potency": "inconclusive: 29.9 µM [inhibitor, single point]"}
{"smiles": "Cc1ccc(S(=O)(=O)N2CCOCC2)cc1NC(=O)COC(=O)/C=C/c1ccco1", "max response, negative = inhibition": "inactive: -15.1%"}
{"smiles": "CCOC(=O)C1CCCN(C(=O)c2ccc(OC)c([N+](=O)[O-])c2)C1", "note": "(configuration not stated)", "Potency": "inconclusive: 29.9 µM [inhibitor, partial curve]"}
{"smiles": "CC(NC(=O)CCNC(=O)c1ccccc1Cl)C1CC2CCC1C2", "note": "(configuration not stated)", "Potency": "inconclusive: 29.9 µM [inhibitor, single point]"}
{"smiles": "CCCN1CCC(NC(=S)Nc2ccc([N+](=O)[O-])cc2)CC1", "max response, negative = inhibition": "inactive: -7.68%"}
{"smiles": "O=C(O)c1csc(N/N=C/c2ccc(Br)cc2)n1", "Potency": "inconclusive: 33.6 µM [inhibitor, single point]"}
{"smiles": "CC(=O)OCC1OC(n2c(S)c(C#N)c(-c3ccccc3)c(C#N)c2=O)C(OC(C)=O)C(OC(C)=O)C1OC(C)=O", "note": "(configuration not stated)", "Potency": "inconclusive: 29.9 µM [inhibitor, single point]"}
{"smiles": "COc1ccc(-c2n[nH]c(=S)n2-c2cc(OC)ccc2OC)cc1", "max response, negative = inhibition": "inactive: -1.75%"}
{"smiles": "OCCCNC(=S)Nc1ccc(Oc2ccccc2)cc1", "Potency": "inconclusive: 26.7 µM [inhibitor, partial curve]"}
{"smiles": "O=C(CNS(=O)(=O)c1ccccc1)NCC(=O)OCc1ccc(Br)cc1", "Potency": "active: 11.9 µM"}
{"smiles": "N#CNC(=Nc1ccccc1)SCc1ccc(C(=O)O)cc1", "Potency": "inconclusive: 23.8 µM [inhibitor, single point]"}
{"smiles": "COC(=O)Oc1nsnc1N1CCOCC1", "Potency": "active: 2.67 µM"}
{"smiles": "COc1ccc2c(CC(=O)OCC(=O)Nc3ccc4c(c3)OCO4)coc2c1", "Potency": "active: 16.8 µM"}
{"smiles": "CCC12CN3CC(CC)(CN(C1)C3c1ccc([N+](=O)[O-])o1)C2=O", "note": "(configuration not stated)", "Potency": "inconclusive: 21.2 µM [inhibitor, single point]"}
{"smiles": "CC(=O)Nc1cccc(NC(=O)c2ccc3[nH]c(C)c(C)c3c2)c1", "Potency": "inconclusive: 33.6 µM [inhibitor, single point]"}
{"smiles": "Cn1c(C(C#N)C(=O)c2sc3ccccc3c2Cl)nc2ccccc21", "note": "(configuration not stated)", "max response, negative = inhibition": "inactive: -2.25%"}
{"smiles": "CN(C)S(=O)(=O)c1cccc(-c2nn(-c3ccccc3)cc2/C=C2\\SC(=S)N(CC(=O)O)C2=O)c1", "Potency": "active: 26.7 µM"}
{"smiles": "N#CCN1CCC(c2cc(-c3ccco3)n[nH]2)CC1", "Potency": "active: 29.9 µM"}
{"smiles": "O=C(NCc1ccccn1)c1cccc(NS(=O)(=O)c2ccccc2F)c1", "max response, negative = inhibition": "inconclusive: -30.1% [inhibitor]"}
{"smiles": "NS(=O)(=O)c1ccc(NC(=O)c2c(F)cccc2Cl)cc1", "max response, negative = inhibition": "inactive: 0.36%"}
{"smiles": "CCCCCc1nnc(NC(=O)Cc2ccc([N+](=O)[O-])cc2)s1", "Potency": "inconclusive: 21.2 µM [inhibitor, partial curve]"}
{"smiles": "Cc1ccc(C2C(C#N)=C(N)Oc3cc(C)oc(=O)c32)o1", "note": "(configuration not stated)", "Potency": "inconclusive: 37.7 µM [inhibitor, single point]"}
{"smiles": "O=C(CN1C(=O)NC(c2ccccc2)(c2ccccc2)C1=O)NC1CCCC1", "max response, negative = inhibition": "inactive: -3.68%"}
{"smiles": "NS(=O)(=O)c1ccc(CCNC(=O)CN2CCC(Cc3ccccc3)CC2)cc1", "max response, negative = inhibition": "inactive: 7.27%"}
{"smiles": "Brc1ccc(C2=CC(c3cccs3)n3ncnc3N2)cc1", "note": "(configuration not stated)", "max response, negative = inhibition": "inconclusive: -35.6% [inhibitor]"}
{"smiles": "Cc1cc(C)nc(/N=C2/NC(=O)CS2)n1", "Potency": "inconclusive: 21.2 µM [inhibitor, partial curve]"}
{"smiles": "CCOC(=O)c1c(NC(=O)C(Sc2ccccc2)c2ccccc2)sc(C(N)=O)c1C", "note": "(configuration not stated)", "Potency": "inconclusive: 21.2 µM [inhibitor, partial curve]"}
{"smiles": "Cc1ccnc(NC(=O)c2ccc(Cl)c(S(=O)(=O)N3CCCC3)c2)c1", "max response, negative = inhibition": "inactive: 5.73%"}
{"smiles": "COC(=O)c1ccccc1NC(=S)NC(=O)c1ccc2c(c1)OCO2", "Potency": "inconclusive: 18.9 µM [inhibitor, partial curve]"}
{"smiles": "CC1CN(C(=O)COC(=O)CSc2ccc([N+](=O)[O-])cc2)CC(C)O1", "note": "(configuration not stated)", "Potency": "active: 16.8 µM"}
{"smiles": "O=C(N/C(=C\\c1cccs1)C(=O)N1CCOCC1)c1ccco1", "Potency": "inconclusive: 29.9 µM [inhibitor, partial curve]"}
{"smiles": "CCOC(=O)C1CCN(S(=O)(=O)c2ccc3[nH]c(=O)c(=O)[nH]c3c2)CC1", "max response, negative = inhibition": "inactive: -6.9%"}
{"smiles": "O=C(N/N=C\\C=C\\c1ccco1)c1cncc(Br)c1", "max response, negative = inhibition": "inconclusive: -30.8% [inhibitor]"}
{"smiles": "O=C(CS(=O)c1ccc(C(F)(F)F)cc1[N+](=O)[O-])Oc1ccccc1", "note": "(configuration not stated)", "Potency": "active: 26.7 µM"}
{"smiles": "Cc1ccc(S(=O)(=O)Nc2nc3ccccc3nc2N2CCc3ccccc3C2)cc1", "Potency": "inconclusive: 26.7 µM [inhibitor, partial curve]"}
{"smiles": "COc1ccc(S(=O)(=O)N2CCCCCC2)cc1C(=O)N(C)Cc1ccc(C(C)(C)C)cc1", "Potency": "inconclusive: 37.7 µM [inhibitor, partial curve]"}
{"smiles": "Cc1ccc(-c2cc(C(=O)Nc3ccc(S(=O)(=O)Nc4ncccn4)cc3)c3ccccc3n2)cc1", "Potency": "inconclusive: 21.2 µM [inhibitor, single point]"}
{"smiles": "COc1ccc(N2CCN(C(=O)CCNS(=O)(=O)c3ccccc3)CC2)cc1", "Potency": "active: 9.47 µM"}
{"smiles": "CC1(C(=O)NS(=O)(=O)c2ccccc2)CCN1C(=O)c1ccccc1", "note": "(configuration not stated)", "max response, negative = inhibition": "inactive: -4.3%"}
{"smiles": "COc1ccc(S(=O)(=O)N2CCC3(CC2)OCCN3S(=O)(=O)c2ccccc2)cc1OC", "max response, negative = inhibition": "inactive: -3.86%"}
{"smiles": "COc1cccc(CNC(=O)[C@@H]2CCCN2C(=O)[C@@H]2CCCN2C(=O)c2ccccc2)c1", "max response, negative = inhibition": "inactive: -5.85%"}
{"smiles": "CC(=O)NC(NC(=S)Nc1ccc(C)cc1C)C(Cl)(Cl)Cl", "note": "(configuration not stated)", "Potency": "inconclusive: 23.8 µM [inhibitor, single point]"}
{"smiles": "Cc1cc(C)c(S(=O)(=O)NN=C2c3ccccc3[C@H]3Cc4csc[n+]4[C@@H]23)c(C)c1", "Potency": "inconclusive: 13.4 µM [inhibitor, single point]"}
{"smiles": "CC(=O)CSc1nnc(Cc2ccc([N+](=O)[O-])cc2)o1", "max response, negative = inhibition": "inactive: -1.88%"}
{"smiles": "Cc1ccc(NC(=O)c2sc(=S)n(-c3cc(C)ccc3F)c2N)cc1", "Potency": "active: 11.9 µM"}
{"smiles": "Cc1cc(N/N=C/c2ccccc2)nc(N)n1", "max response, negative = inhibition": "inactive: -21.7%"}
{"smiles": "Cc1ccc(C(c2c(C)[nH][nH]c2=O)c2c(C)[nH][nH]c2=O)cc1", "Potency": "active: 26.7 µM"}
{"smiles": "Cc1ccc(NC(=O)c2cccc(Oc3ccc([N+](=O)[O-])cc3)c2)c(C(=O)O)c1", "Potency": "inconclusive: 23.8 µM [inhibitor, single point]"}
{"smiles": "O=C(COc1ccc(Br)cc1)Nc1ccc(C(=O)Nc2ccccc2C(=O)O)cc1", "Potency": "inconclusive: 29.9 µM [inhibitor, single point]"}
{"smiles": "CC1(C)CC(=O)C(=Cc2cn(CCC#N)nc2-c2ccc(F)cc2)C(=O)C1", "Potency": "active: 3.36 µM"}
{"smiles": "N#Cc1c(SCC(=O)Nc2ccc(Cl)cc2Cl)sc2c(O)cc(=O)[nH]c12", "Potency": "inconclusive: 23.8 µM [inhibitor, single point]"}
{"smiles": "Cc1cc[n+](Cc2ccccc2)c(N)c1", "max response, negative = inhibition": "inactive: -0.0621%"}
{"smiles": "O=C(Cn1ncc2c([nH]c3ccccc32)c1=O)N1CCN(c2ccc(F)cc2)CC1", "Potency": "inconclusive: 21.2 µM [inhibitor, single point]"}
{"smiles": "CC1CN(c2ccccn2)C(C)CN1C(=S)Nc1ccccc1", "note": "(configuration not stated)", "max response, negative = inhibition": "inactive: 0.599%"}
{"smiles": "O=S(=O)(c1ccccc1)N1CCN(Cc2c(O)ccc3ccccc23)CC1", "Potency": "inconclusive: 4.74 µM [inhibitor, full curve]"}
{"smiles": "Cc1cccc(/C(N)=N/OC(=O)c2ccc3c(c2)OCO3)c1", "max response, negative = inhibition": "inactive: 1.76%"}
{"smiles": "CCOc1ccccc1N1C(=O)CC(Sc2n[nH]c(-c3ccccc3)n2)C1=O", "note": "(configuration not stated)", "Potency": "active: 7.52 µM"}
{"smiles": "Cc1ccc(C(C)(C)C)cc1S(=O)(=O)Nc1nc2ccccc2nc1Cl", "Potency": "inconclusive: 29.9 µM [inhibitor, single point]"}
{"smiles": "CCCCOc1ccc(C2OC34CCCCC3C(C#N)(C#N)C2(C#N)C(=N)O4)cc1", "note": "(configuration not stated)", "Potency": "active: 21.2 µM"}
{"smiles": "C[C@H](CO)N1C[C@H](C)[C@@H](CN(C)S(=O)(=O)c2ccc3c(c2)OCCCO3)OCc2cnnn2CCCC1=O", "max response, negative = inhibition": "inactive: -13.7%"}
{"smiles": "Cc1ccc(NC(=O)Cn2c(CCC(=O)O)ccc2-c2ccc(Cl)cc2)cc1", "max response, negative = inhibition": "inactive: -18.8%"}
{"smiles": "Cc1ccc(N=Cc2cc(Cc3ccccc3Cl)cc([N+](=O)[O-])c2O)c(O)c1", "Potency": "inconclusive: 29.9 µM [inhibitor, partial curve]"}
{"smiles": "Cc1ccnc(N2C(=O)c3cccc4c([N+](=O)[O-])ccc(c34)C2=O)c1", "max response, negative = inhibition": "inconclusive: -30.6% [inhibitor]"}
{"smiles": "O=c1[nH]c2ccccc2nc1CCc1ccccc1", "Potency": "active: 26.7 µM"}
{"smiles": "Cc1ccc(NS(=O)(=O)c2cccc(C(=O)NNC(=O)c3cccn3C)c2)c(C)c1", "max response, negative = inhibition": "inactive: -8.54%"}
{"smiles": "CCCNC(=O)C1(C)CCCN(C(=O)c2cc(C)n(C(C)(C)C)n2)C1", "note": "(configuration not stated)", "max response, negative = inhibition": "inactive: -2.66%"}
{"smiles": "Cn1c(=O)n(Cc2ccccc2)c(=O)c2c1nc1n2CCCN1Cc1ccccc1", "max response, negative = inhibition": "inactive: -6.63%"}
{"smiles": "Cc1ccc(S(=O)(=O)NCCC(c2ccccc2)c2ccccc2)cc1C(=O)O", "Potency": "inconclusive: 26.7 µM [inhibitor, single point]"}
{"smiles": "O=C(C1CCCN(S(=O)(=O)c2cccc3cccnc23)C1)N1CCc2ccccc21", "note": "(configuration not stated)", "max response, negative = inhibition": "inactive: -6.53%"}
{"smiles": "Cc1ccc(NS(=O)(=O)c2cc([N+](=O)[O-])ccc2NNC(=S)Nc2cccc(Cl)c2)c(C)c1", "Potency": "inconclusive: 23.8 µM [inhibitor, partial curve]"}
{"smiles": "Cc1cccc(NC(=S)N/C(=N/S(=O)(=O)c2ccccc2)c2ccccc2)c1", "Potency": "active: 23.8 µM"}
{"smiles": "COc1cccc(/C=N/NC(=O)c2ccc(COc3ccc(Cl)cc3Cl)o2)c1", "max response, negative = inhibition": "inactive: -5.07%"}
